Experimental data reported in PubChem BioAssay AID1671190 (National Center for Advancing Translational Sciences (NCATS), 2021).
Out of some 580,000 compounds screened, about 6,100 (1.1%) were called active. This list was built around the results that the source calls inconclusive (neither active nor inactive); the mix of calls is not that of the screen. The call rests on the fitted dose curve; in most records, active means well fitted inhibition curve with a large enough effect; inconclusive means small, poorly fitted or top-dose-only effect, or another doubt; inactive means no such curve, though single readings can be large or run the other way. Potencies of inconclusive entries are doubtful fits and often do not repeat.

Protein sequences, listed by entry. Tags and fused reporters are not part of them. Lines headed by an entry give the natural chain unless they say otherwise; changes in a name come on top.
UniProt P18054: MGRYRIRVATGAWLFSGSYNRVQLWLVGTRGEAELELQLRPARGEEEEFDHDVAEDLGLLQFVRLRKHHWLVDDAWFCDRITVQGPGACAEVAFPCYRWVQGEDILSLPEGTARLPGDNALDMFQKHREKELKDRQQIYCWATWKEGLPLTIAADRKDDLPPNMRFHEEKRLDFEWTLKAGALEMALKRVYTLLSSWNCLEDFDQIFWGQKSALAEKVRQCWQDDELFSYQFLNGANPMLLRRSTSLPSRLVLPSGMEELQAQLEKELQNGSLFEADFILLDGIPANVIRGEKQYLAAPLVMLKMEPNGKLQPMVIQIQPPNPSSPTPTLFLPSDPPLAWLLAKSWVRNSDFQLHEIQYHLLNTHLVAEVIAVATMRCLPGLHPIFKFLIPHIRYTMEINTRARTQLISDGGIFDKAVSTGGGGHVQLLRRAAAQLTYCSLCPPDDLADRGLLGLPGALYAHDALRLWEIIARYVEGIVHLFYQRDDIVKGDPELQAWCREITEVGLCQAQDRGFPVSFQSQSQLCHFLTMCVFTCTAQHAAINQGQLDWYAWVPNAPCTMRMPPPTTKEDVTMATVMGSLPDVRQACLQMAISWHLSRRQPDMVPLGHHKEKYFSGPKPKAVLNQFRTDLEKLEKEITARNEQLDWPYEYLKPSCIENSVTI

Biological target: Polyunsaturated fatty acid lipoxygenase ALOX12 (Homo sapiens) (UniProt P18054)
Experiment: Primary qHTS assay for inhibitors of human arachidonate 12S-lipoxygenase (ALOX12): Round 2
Details: purified 12hLO, xylenol orange hydroperoxide absorbance; activity change, negative = inhibition: at 108 µM (top of the series) unless noted
How it was run: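 Hydroperoxide product was detected by ferrous iron/xylenol orange as the 573 to 405 nm absorbance ratio. Arachidonic acid at 40 uM (final) was turned over for 30 min at room temperature by 150 nM human 12hLO, pH 7.0 Hepes buffer, after 15 min compound preincubation.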
On the % scale 0 is the no-effect control and ±100 the full control effect; potency means the concentration at half of the fitted maximal effect.

Row | Compound | Potency | activity change, negative = inhibition
1 | Cc1ccc(C)c(Cn2c(C3CC(=O)N(c4ccccc4C)C3)nc3ccccc32)c1 (configuration not stated) | inconclusive: 7.08 µM [inhibitor, full curve, poor fit] | 
2 | CN(C)S(=O)(=O)c1ccc(N2CCCC2)c(C(=O)Nc2ccccc2Br)c1 | inconclusive: 141 µM [inhibitor, partial curve, poor fit] | 
3 | CCc1c2c(nn1-c1cc(Cl)ccc1OC)CCCC2=O | inconclusive: 39.8 µM [inhibitor, single point] | 
4 | Cc1cc(C(=O)Nc2cccc(-c3nc(CNC(=O)c4ccccc4C(F)(F)F)c(C)o3)c2)c(C)o1 | inconclusive: 126 µM [inhibitor, partial curve, poor fit] | 
5 | CC1=C(C(=O)Nc2nc3ccccc3s2)C(c2ccco2)C(C#N)=C(SCC(=O)NC2CCCCC2)N1 (configuration not stated) |  | inactive: -17.6%
6 | Cc1cccc(Cn2c(N3CCN(c4ccccn4)CC3)nc3c2c(=O)n(C)c(=O)n3C)c1 | inconclusive: 89.1 µM [inhibitor, partial curve, poor fit] | 
7 | COc1ccccc1CC(=O)N1CC[C@@H]2NC(=O)[C@H]3C[C@H](NC(=O)C4CCC4)CN3C(=O)[C@H]21 |  | inactive: 47.9%
8 | CC(OC(=O)C12CC3CC(CC(C3)C1)C2)C(N)=O (configuration not stated) | inconclusive: 100 µM [inhibitor, single point] | 
9 | S=c1[nH]nc(CSc2nc3ccccc3s2)o1 | inconclusive: 35.5 µM [inhibitor, partial curve, poor fit] | 
10 | Cc1ccc(SCc2cc(=O)c3c(=O)n(-c4ccccc4)[nH]c3[nH]2)cc1 | active: 35.5 µM | 
11 | COc1ccc(-c2oc3c4c2C(=O)OCCOC4CCC3)cc1 (configuration not stated) | inconclusive: 39.8 µM [inhibitor, partial curve, poor fit] | 
12 | Cc1ccc(-n2cccc2C=O)cc1Cl | inconclusive: 50.1 µM [inhibitor, partial curve, poor fit] | 
13 | COc1ccc(-c2nnc(SCc3nc(C)no3)n2CCc2ccccc2)cc1 |  | inactive: -28.9%
14 | Cc1ccccc1-c1nc(CS(=O)(=O)CC(=O)NCc2ccc(OC(C)C)cc2)c(C)o1 |  | inactive: -29.9%
15 | Oc1cccc(C(=S)N2CCN(Cc3ccccc3)CC2)c1 | inconclusive: 79.4 µM [inhibitor, partial curve, poor fit] | 
16 | O=C(CN1C(=O)NC(c2ccc(Cl)cc2)C2=C1COC2=O)Nc1cccc(C(F)(F)F)c1 (configuration not stated) | inconclusive: 14.1 µM [inhibitor, full curve] | 
17 | Cn1cc(CN2CCOC[C@H]2c2ncc(-c3ccc(F)cc3F)[nH]2)c2ccccc21 |  | inactive: 2.91% [at 176 µM]
18 | N#Cc1ccc(S(=O)(=O)N2CCC3(CC2)CC(CC(=O)N2CCOCC2)CCO3)cc1 (configuration not stated) |  | inactive: 53.4%
19 | Cc1onc(-c2c(F)cccc2Cl)c1C(=O)Nc1nnc(-c2ccccc2)s1 |  | inactive: 0%
20 | COc1ccc(C)cc1Nc1nc(-c2c[nH]c3ccccc23)cs1 | inconclusive: 20 µM [inhibitor, full curve] | 
21 | CO/N=C/C(C(C)=O)C(=O)Nc1ccc(Cl)cc1Cl (configuration not stated) | inconclusive: 35.5 µM [inhibitor, partial curve, poor fit] | 

Row | Compound | Potency | activity change, negative = inhibition
22 | c1cncc(-c2nc3ccncc3[nH]2)c1 | inconclusive: 5.62 µM [inhibitor, full curve, poor fit] | 
23 | Cc1ccc(NC(=S)NNC(=O)C2CC2c2ccc(C)cc2)cc1 (configuration not stated) | inconclusive: 56.2 µM [inhibitor, partial curve, poor fit] | 
24 | CSc1nc(C)cc(C)c1S(=O)(=O)c1ccccc1C |  | inactive: 364%
25 | O=C1CO[C@H]2CCN(Cc3ccccc3O)CC[C@@H]2N1c1ccccc1 | inconclusive: 44.7 µM [inhibitor, full curve] | 
26 | Cc1ccc(C2CC2c2n[nH]c(=S)n2-c2cccc(C)c2)cc1 (configuration not stated) | inconclusive: 39.8 µM [inhibitor, partial curve] | 
27 | C=CCNC(=O)c1ccccc1NC(=O)c1cnc2ccccc2n1 | inconclusive: 89.1 µM [inhibitor, partial curve, poor fit] | 
28 | CCNC(=O)C1(C)CCCN(C(=O)c2ccc3c(c2)C(C)(C)CCC3(C)C)C1 (configuration not stated) | inconclusive: 35.5 µM [inhibitor, single point] | 
29 | CC(=NCc1ccccc1)C1=C(O)COC1=O | inconclusive: 35.5 µM [inhibitor, single point] | 
30 | O=C(CN1C(=O)NC2(CCOc3ccccc32)C1=O)c1cccs1 (configuration not stated) | inconclusive: 39.8 µM [inhibitor, single point] | 
31 | Cc1ccc(-c2nnn(CC(=O)N(Cc3ccc(F)cc3)C(C(=O)NC3CCCC3)c3ccncc3)n2)o1 (configuration not stated) | inconclusive: 4.47 µM [inhibitor, full curve, poor fit] | 
32 | CC(=O)NCCNc1ncnc2ccc(-c3cccc(NS(C)(=O)=O)c3)cc12 | inconclusive: 31.6 µM [inhibitor, partial curve] | 
33 | O=S(=O)(c1ccc2nc(N3CCN(c4cccc(Cl)c4)CC3)ccc2c1)N1CCCCC1 |  | inactive: -26%
34 | N=C1/C(=C\c2coc3ccc(O)cc3c2=O)C(=O)N=C2SC=CN12 | inconclusive: 28.2 µM [inhibitor, partial curve] | 
35 | COCCN(CC(=O)Nc1cccc(C)c1C)C(=O)Cc1sc(C)nc1-c1ccc(F)cc1 | inconclusive: 89.1 µM [inhibitor, single point] | 
36 | CCOC(=O)C1(CCOc2ccccc2)CCN(Cc2ccc(OC)cc2)CC1 |  | inactive: 2.32%
37 | O=C(c1cc(COc2c(F)cccc2F)on1)N1CCC(c2ccccc2Cl)C1 (configuration not stated) |  | inactive: -9.51%
38 | Cc1cccc(C)c1NC(=O)CN1CCN(Cc2nc3ccccc3o2)CC1 |  | inactive: 25%
39 | COC(=O)c1ccc2nc(C3CCCCC3)c(Cc3cccc(Cl)c3)n2c1 | inconclusive: 35.5 µM [inhibitor, partial curve, poor fit] | 
40 | Cc1ccc(C2Cn3cnc(C(=O)N4CCC(C(=O)NCc5ccccc5Cl)CC4)c3CO2)cc1 (configuration not stated) |  | inactive: 48%
41 | O=C(Nc1cccc(-c2nnnn2C2CC2)c1)C1CC=CCC1 (configuration not stated) | inconclusive: 126 µM [inhibitor, single point] | 
42 | Cn1cccc1C(=O)N1CCC[C@@]2(CCN(c3cccc(-c4ccccc4)c3)C2)C1 | inconclusive: 28.2 µM [inhibitor, single point] | 

Two entries from above, as comma-separated lines.
Row,Compound,Potency,"activity change, negative = inhibition"
11,COc1ccc(-c2oc3c4c2C(=O)OCCOC4CCC3)cc1 (configuration not stated),"inconclusive: 39.8 µM [inhibitor, partial curve, poor fit]",
23,Cc1ccc(NC(=S)NNC(=O)C2CC2c2ccc(C)cc2)cc1 (configuration not stated),"inconclusive: 56.2 µM [inhibitor, partial curve, poor fit]",
